Sequences of proteins named here, by UniProt entry; tags and fusion partners are left off. A change or cut given only in a name is not applied to a line headed by its entry.
UniProt P10360: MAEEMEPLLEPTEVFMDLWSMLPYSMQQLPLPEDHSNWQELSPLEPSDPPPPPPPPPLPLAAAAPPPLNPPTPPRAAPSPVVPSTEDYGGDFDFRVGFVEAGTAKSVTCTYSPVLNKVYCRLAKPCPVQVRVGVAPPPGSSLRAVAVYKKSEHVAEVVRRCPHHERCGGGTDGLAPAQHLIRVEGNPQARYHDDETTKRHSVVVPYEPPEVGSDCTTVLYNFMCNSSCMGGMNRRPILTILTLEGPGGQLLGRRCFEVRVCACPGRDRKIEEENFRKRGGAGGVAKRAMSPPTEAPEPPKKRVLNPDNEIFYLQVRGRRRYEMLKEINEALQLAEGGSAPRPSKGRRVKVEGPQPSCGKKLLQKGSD

According to paper PMC11510328:

Target: T1, chicken Fos (pCAG-Fos-HA) (chicken) (UniProt P11939)
T1 sequence: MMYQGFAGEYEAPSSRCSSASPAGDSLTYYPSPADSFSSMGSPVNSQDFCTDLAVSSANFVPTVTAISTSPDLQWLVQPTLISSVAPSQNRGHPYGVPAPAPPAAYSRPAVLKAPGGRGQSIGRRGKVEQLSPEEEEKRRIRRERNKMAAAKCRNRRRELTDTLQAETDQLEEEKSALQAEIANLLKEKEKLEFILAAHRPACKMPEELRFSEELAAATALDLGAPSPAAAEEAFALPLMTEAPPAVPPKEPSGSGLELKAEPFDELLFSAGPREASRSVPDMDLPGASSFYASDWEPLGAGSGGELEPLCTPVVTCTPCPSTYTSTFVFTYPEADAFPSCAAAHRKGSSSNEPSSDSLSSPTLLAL
Test: co-IP; p53 and Fos expression vectors co-transfected into LMH cells, with or without ILTV infection (MOI = 1, 9 hpi); IP-grade RIPA lysis; precleared lysate incubated overnight with anti-HA or anti-Flag antibody, protein A/G agarose; isotype control antibody; Western blot

binding: binds
Substance: p53 mutant protein pm1 (p53-R160H, pCAG-pm1-Flag) (from UniProt P10360)

No constants are given. Whether binding was seen depends on the method and setting. Binding seen in cells or lysates may run through a third protein. Binding calls can cover weak binding; strength is not graded here. Tags and fused reporters may be left off the sequences shown.
